Data from PMC4747350.
These are yes or no findings as the source states them, for the method shown. In cells and extracts the contact can be indirect. Some binding calls cover weakened binding; strength is not graded here.

By UniProt entry, the sequences of proteins in these tests, tags left out. Residues count along the entry.
UniProt P08581, residues 25-1390: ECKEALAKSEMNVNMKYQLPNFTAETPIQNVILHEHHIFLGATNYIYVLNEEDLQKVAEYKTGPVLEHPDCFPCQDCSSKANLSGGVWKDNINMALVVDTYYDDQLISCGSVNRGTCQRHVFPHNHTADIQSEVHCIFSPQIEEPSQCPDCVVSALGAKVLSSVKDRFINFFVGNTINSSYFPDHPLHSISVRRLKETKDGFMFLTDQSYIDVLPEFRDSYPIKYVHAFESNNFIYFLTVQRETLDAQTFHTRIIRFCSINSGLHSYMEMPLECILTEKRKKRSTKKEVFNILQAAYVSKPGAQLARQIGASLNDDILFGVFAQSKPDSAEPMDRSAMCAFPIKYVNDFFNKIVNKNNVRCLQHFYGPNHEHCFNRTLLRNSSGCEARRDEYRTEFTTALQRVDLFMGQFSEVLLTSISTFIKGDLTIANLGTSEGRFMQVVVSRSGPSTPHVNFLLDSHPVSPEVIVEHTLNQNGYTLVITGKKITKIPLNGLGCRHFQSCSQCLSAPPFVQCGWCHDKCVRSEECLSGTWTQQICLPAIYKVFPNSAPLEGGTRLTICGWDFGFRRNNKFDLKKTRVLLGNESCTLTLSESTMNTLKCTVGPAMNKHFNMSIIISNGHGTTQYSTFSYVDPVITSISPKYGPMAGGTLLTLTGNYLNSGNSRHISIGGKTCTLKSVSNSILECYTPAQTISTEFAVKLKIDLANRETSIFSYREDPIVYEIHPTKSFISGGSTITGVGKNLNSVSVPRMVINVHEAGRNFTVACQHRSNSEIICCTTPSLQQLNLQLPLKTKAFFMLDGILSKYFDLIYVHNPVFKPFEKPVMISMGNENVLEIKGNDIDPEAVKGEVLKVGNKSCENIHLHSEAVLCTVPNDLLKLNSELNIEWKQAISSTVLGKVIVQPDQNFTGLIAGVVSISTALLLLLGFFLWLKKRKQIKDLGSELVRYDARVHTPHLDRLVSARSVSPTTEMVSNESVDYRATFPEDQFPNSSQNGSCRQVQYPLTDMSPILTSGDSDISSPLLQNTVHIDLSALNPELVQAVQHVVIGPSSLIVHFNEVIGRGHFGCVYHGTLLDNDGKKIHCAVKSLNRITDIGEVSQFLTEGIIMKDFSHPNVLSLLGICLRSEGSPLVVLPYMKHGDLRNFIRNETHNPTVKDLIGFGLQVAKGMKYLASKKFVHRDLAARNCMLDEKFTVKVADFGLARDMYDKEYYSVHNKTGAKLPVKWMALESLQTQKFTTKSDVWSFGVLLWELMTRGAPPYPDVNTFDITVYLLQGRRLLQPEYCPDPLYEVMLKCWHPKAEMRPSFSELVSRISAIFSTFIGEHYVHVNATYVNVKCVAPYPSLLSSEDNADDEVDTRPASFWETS
UniProt Q04912, residues 25-1400: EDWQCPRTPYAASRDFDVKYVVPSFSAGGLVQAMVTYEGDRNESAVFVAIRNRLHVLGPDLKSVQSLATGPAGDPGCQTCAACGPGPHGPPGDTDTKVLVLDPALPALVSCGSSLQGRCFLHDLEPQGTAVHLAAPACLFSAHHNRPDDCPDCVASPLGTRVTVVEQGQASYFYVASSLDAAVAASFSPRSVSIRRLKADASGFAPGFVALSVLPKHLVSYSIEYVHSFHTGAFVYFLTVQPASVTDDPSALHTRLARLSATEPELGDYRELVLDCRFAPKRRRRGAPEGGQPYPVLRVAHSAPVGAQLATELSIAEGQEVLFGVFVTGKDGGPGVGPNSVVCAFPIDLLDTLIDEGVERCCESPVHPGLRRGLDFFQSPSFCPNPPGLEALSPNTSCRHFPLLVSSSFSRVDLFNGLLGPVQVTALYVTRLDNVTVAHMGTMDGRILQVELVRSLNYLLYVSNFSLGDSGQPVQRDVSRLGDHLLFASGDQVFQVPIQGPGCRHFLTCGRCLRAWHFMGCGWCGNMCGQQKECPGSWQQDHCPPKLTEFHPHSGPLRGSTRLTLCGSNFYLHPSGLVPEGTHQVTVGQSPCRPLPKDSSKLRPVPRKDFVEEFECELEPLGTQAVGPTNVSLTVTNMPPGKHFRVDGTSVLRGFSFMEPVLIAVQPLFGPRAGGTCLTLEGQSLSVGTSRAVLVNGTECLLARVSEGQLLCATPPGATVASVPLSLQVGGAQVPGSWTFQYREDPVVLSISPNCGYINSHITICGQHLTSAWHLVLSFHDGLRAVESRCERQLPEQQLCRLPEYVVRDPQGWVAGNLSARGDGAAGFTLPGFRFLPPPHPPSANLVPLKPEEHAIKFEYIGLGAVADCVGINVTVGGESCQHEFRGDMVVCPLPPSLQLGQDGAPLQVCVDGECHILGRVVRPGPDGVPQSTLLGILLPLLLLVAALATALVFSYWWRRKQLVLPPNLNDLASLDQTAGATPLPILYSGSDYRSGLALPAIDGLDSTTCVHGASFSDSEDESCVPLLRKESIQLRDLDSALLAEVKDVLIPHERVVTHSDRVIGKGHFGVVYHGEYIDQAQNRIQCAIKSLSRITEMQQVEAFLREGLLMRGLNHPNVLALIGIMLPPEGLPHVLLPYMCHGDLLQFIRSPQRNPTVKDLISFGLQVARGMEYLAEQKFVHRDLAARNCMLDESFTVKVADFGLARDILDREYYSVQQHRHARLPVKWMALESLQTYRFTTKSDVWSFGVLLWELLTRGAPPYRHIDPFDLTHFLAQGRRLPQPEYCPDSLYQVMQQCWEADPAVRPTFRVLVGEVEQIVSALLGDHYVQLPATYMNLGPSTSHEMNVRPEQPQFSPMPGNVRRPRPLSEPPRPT

Molecular target: MET (human (endogenous in MKN-45)) (UniProt P08581)
Assay: co-IP; MKN-45 lysate (0.025 M Tris pH 7.4, 0.15 M NaCl, 0.001 M EDTA, 1% NP40, 5% glycerol); 500 ug total protein immunoprecipitated overnight at 4°C with anti-MET antibody, magnetic beads; immunoblotted for RON; irrelevant IgG as negative control

binding: binds
Substance: full-length RON (recepteur d'origine nantais) (from UniProt Q04912 25-1400) (receptor)
